Record: PubChem BioAssay AID686943 (Drosophila RNAi Screening Center, 2013)

Screen: 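Search across the genome for regulators of signalling from receptor tyrosine kinase to ERK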 (primary screen)
System: Drosophila S2R+ haemocyte-like cells expressing YFP-tagged ERK (Rolled)
Reagent: long dsRNA against Drosophila genes
Conditions: insulin stimulation versus unstimulated cells; dose and duration not given
Measured: 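Per-plate z-scores of phospho-ERK immunostaining normalised to YFP-tagged ERK, measured with and without insulin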
Scale: replicate 1, z-score of dpERK with insulin and replicate 2, z-score of dpERK with insulin: higher = more active ERK per ERK-YFP after insulin; replicate 1, z-score of dpERK under basal conditions: higher = more basal active ERK per ERK-YFP; replicate 1, z-score of ERK-YFP with insulin: higher = more YFP-tagged ERK signal
In all, the deposit lists about 23,000 reagents; shown is a random part of those with a known target gene and a result. 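Extra replicates exist only for a retested subset of genes; insulin dose and duration not given; both raised and lowered dpERK matter.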 The numbers tell different reagents against one gene apart. A plus sign joins genes that one reagent is predicted to hit. Not given: the amount of reagent, the time to read-out.

| replicate 1, z-score of dpERK with insulin | replicate 2, z-score of dpERK with insulin | replicate 1, z-score of dpERK under basal conditions | replicate 1, z-score of ERK-YFP with insulin | predicted target | dsRNA no. |
| --- | --- | --- | --- | --- | --- |
| 0.53 | -0.25 | 0.96 | -0.28 | CG32984 | 1 |
| -0.76 | -0.12 | -0.59 | -0.37 | Rrp45 | 1 |
| -0.48 | -0.19 | -0.04 | 1.06 | snz | 1 |
| 0.72 | 0.94 | 0.86 | -0.44 | CG17028 | 1 |
| -0.64 | 0.01 | 0.67 | 0.39 | CG34428 | 1 |
| -1.28 | 0.43 | 1.12 | -0.22 | CatB | 1 |
| 1.04 | 0.32 | -0.12 | 0.27 | moody | 1 |
| 2.28 | 1.2 | 1.16 | 1.05 | FER | 1 |
| -0.19 | 0.16 | 1.79 | 0.34 | FER | 2 |
| 0.83 | 0.05 | 0.39 | 0.27 | Mst77F | 1 |
| 0 | -0.16 | -0.22 | -0.09 | CG3505 | 1 |
| 0.95 | 0.62 | 0.78 | -0.38 | CG5653 | 1 |
| 0.29 | -0.27 | 0.22 | 0.12 | CG10467 | 1 |
| -0.68 | -0.15 | -0.73 | 0.58 | CG15831 (retired record) | 1 |
| -0.01 | 1.76 | 2.88 | -0.11 | Sec71 | 1 |
| 0.75 | 0.02 | -0.08 | 0.06 | CG9760 | 1 |
| 0.34 | 0.5 | -0.99 | 0.29 | sds22 | 1 |
| 0.96 | 0.81 | -0.24 | 0.03 | MED24 | 1 |
| 0.32 | -0.19 | -0.27 | 0 | Prx4 | 1 |
| 0.53 | 0.43 | 1.24 | -0.35 | CG33771 | 1 |
| 0.11 | -1.79 | -3.26 | 5.9 | bel | 1 |
| 0.15 | 0.39 | 0.57 | -0.24 | CG34290 | 1 |
| 0.3 | 0.73 | 0.11 | -0.85 | CG14787 | 1 |
| 0.96 | 0.03 | -0.26 | -0.15 | BomT2 | 1 |
| 0.43 | 0.35 | 1.5 | 0.3 | unc-45 | 1 |
| -0.6 | -0.35 | 1.1 | 2.46 | uex | 1 |
| -1.87 | -3.3 | -0.56 | 5.27 | uex | 2 |
| -0.1 | -0.7 | 0.78 | -0.07 | tef | 1 |
| -0.04 | 0.07 | 0.49 | -0.4 | tef | 2 |
| 0.66 | -0.04 | -1.04 | 1.24 | PolI | 1 |
| 0.55 | -0.05 | -0.29 | 0.18 | veg (retired record) | 1 |
| -1.2 | -3.38 | -2.38 | 1.42 | Act5C | 1 |
| -0.85 | -0.48 | -0.81 | 0.45 | Drl-2 | 1 |
| 0 | 0.5 | -0.34 | 0.16 | Drl-2 | 2 |
| 0.66 | 0.16 | -0.49 | -0.15 | Drl-2 | 3 |
| 0.11 | 0.09 | 0.18 | -0.13 | CG34106 | 1 |
| -0.48 | -0.57 | -0.04 | 0.47 | CG7420 | 1 |
| 1.31 | 0.55 | -0.36 | 0.55 | CG1142 | 1 |
| -0.39 | -0.31 | -0.76 | 0.2 | SA2 | 1 |
| 0.48 | 0.82 | 1.41 | -0.35 | CG43136 | 1 |
| -0.02 | -0.1 | 1.67 | 0.83 | Mvl | 1 |
| -0.03 | 0.11 | 0.86 | 0.45 | Pp1alpha-96A | 1 |
| 0.15 | 0.17 | -0.52 | 0.97 | CG11345 | 1 |
| 0.35 | -0.95 | 2.67 | -1.85 | betaTub85D | 1 |
| 0.06 | -0.19 | -0.22 | 1.4 | Bap111 | 1 |
| 0.28 | 0.82 | 0.21 | 0.11 | CG33493 | 1 |
| -0.25 | 0.36 | 0.75 | 0.39 | Ipo9 | 1 |
| -1.52 | -1.3 | -0.63 | -0.61 | CG42354 + CG42353 | 1 |
| 0.31 | 0.23 | 0.34 | 0.25 | CG18281 | 1 |
| -0.17 | 0.95 | 0.35 | 0.17 | Rint1 | 1 |
| -4.48 | -3.89 | 0.27 | 0.71 | step | 1 |
| -1.37 | -1.94 | -1.37 | 0.01 | step | 2 |
| -0.34 | 0.81 | 0.32 | -0.13 | tamo | 1 |
| -0.41 | 0.3 | 0.62 | -1.04 | Spn55B | 1 |
| 0.46 | -3.28 | 0.72 | 0.04 | Spn55B | 2 |
| -3.48 | -3.42 | -1.79 | 1.18 | Dgk | 1 |
| 0.82 | 0.42 | 0.09 | 0.05 | Dgk | 2 |
| 0.55 | 0.95 | 0.25 | 0.29 | Dgk | 3 |
| 0.63 | 1.46 | 0.93 | 0.17 | Dgk | 4 |
| -3.53 | -4.75 | -0.05 | -2.48 | Dgk | 5 |

6 entries from above, set out differently.
{"predicted target":"Mst77F","dsRNA no.":1,"replicate 1, z-score of dpERK with insulin":0.83,"replicate 2, z-score of dpERK with insulin":0.05,"replicate 1, z-score of dpERK under basal conditions":0.39,"replicate 1, z-score of ERK-YFP with insulin":0.27}
{"predicted target":"CG3505","dsRNA no.":1,"replicate 1, z-score of dpERK with insulin":0,"replicate 2, z-score of dpERK with insulin":-0.16,"replicate 1, z-score of dpERK under basal conditions":-0.22,"replicate 1, z-score of ERK-YFP with insulin":-0.09}
{"predicted target":"CG5653","dsRNA no.":1,"replicate 1, z-score of dpERK with insulin":0.95,"replicate 2, z-score of dpERK with insulin":0.62,"replicate 1, z-score of dpERK under basal conditions":0.78,"replicate 1, z-score of ERK-YFP with insulin":-0.38}
{"predicted target":"CG10467","dsRNA no.":1,"replicate 1, z-score of dpERK with insulin":0.29,"replicate 2, z-score of dpERK with insulin":-0.27,"replicate 1, z-score of dpERK under basal conditions":0.22,"replicate 1, z-score of ERK-YFP with insulin":0.12}
{"predicted target":"CG15831 (retired record)","dsRNA no.":1,"replicate 1, z-score of dpERK with insulin":-0.68,"replicate 2, z-score of dpERK with insulin":-0.15,"replicate 1, z-score of dpERK under basal conditions":-0.73,"replicate 1, z-score of ERK-YFP with insulin":0.58}
{"predicted target":"Sec71","dsRNA no.":1,"replicate 1, z-score of dpERK with insulin":-0.01,"replicate 2, z-score of dpERK with insulin":1.76,"replicate 1, z-score of dpERK under basal conditions":2.88,"replicate 1, z-score of ERK-YFP with insulin":-0.11}
